PubChem BioAssay AID504784 | Drosophila RNAi Screening Center | 2011
The screen tested about 17,000 reagents; shown is a random part of those with a known target gene and a result. 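Each column is one replicate's B-score; the combined score over replicates was not deposited, so single values may mislead.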 The numbers tell different reagents against one gene apart. Names joined by + are all predicted targets of the reagent.

Purpose: 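Search for regulators of lipid droplet storage in oleate-fed fly cells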 (primary screen)
Cell system: Drosophila Kc167 embryonic cells
Reagents: long dsRNA against Drosophila genes, about 250 ng dsRNA per well
Duration: 4 days
Challenge: cells fed 400 µM oleic acid bound to BSA
Measurement: 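Microscope images give a droplet-to-nucleus area ratio, taken as log and converted to a screen-wide B-score; higher values mean greater lipid storage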
Reading the numbers: droplet/nuclear area B-score: higher = more stored lipid (overstorage)

{"Target gene": "msd5", "reagent": 1, "droplet/nuclear area B-score, replicate 1": 0.554, "droplet/nuclear area B-score, replicate 2": -0.315}
{"Target gene": "CG5758", "reagent": 1, "droplet/nuclear area B-score, replicate 1": -0.139, "droplet/nuclear area B-score, replicate 2": 0.877, "droplet/nuclear area B-score, replicate 3": -0.268}
{"Target gene": "CG5758", "reagent": 2, "droplet/nuclear area B-score, replicate 1": 0.318, "droplet/nuclear area B-score, replicate 2": 1.45}
{"Target gene": "Cp7Fb", "reagent": 1, "droplet/nuclear area B-score, replicate 1": -2.18, "droplet/nuclear area B-score, replicate 2": -0.543}
{"Target gene": "org-1", "reagent": 1, "droplet/nuclear area B-score, replicate 1": -0.813, "droplet/nuclear area B-score, replicate 2": 0.149}
{"Target gene": "org-1", "reagent": 2, "droplet/nuclear area B-score, replicate 1": 1, "droplet/nuclear area B-score, replicate 2": 0.0246}
{"Target gene": "CG33127", "reagent": 1, "droplet/nuclear area B-score, replicate 1": -0.118, "droplet/nuclear area B-score, replicate 2": -0.387}
{"Target gene": "unc-104", "reagent": 1, "droplet/nuclear area B-score, replicate 1": -0.173, "droplet/nuclear area B-score, replicate 2": 0.0203}
{"Target gene": "CG7386", "reagent": 1, "droplet/nuclear area B-score, replicate 1": -1.86, "droplet/nuclear area B-score, replicate 2": 0.937}
{"Target gene": "CG34056", "reagent": 1, "droplet/nuclear area B-score, replicate 1": -2.2, "droplet/nuclear area B-score, replicate 2": 0.486}
{"Target gene": "CG13321", "reagent": 1, "droplet/nuclear area B-score, replicate 1": 3.31, "droplet/nuclear area B-score, replicate 2": 1.79}
{"Target gene": "PolZ1", "reagent": 1, "droplet/nuclear area B-score, replicate 1": -0.0351, "droplet/nuclear area B-score, replicate 2": -2.12}
{"Target gene": "CG3732", "reagent": 1, "droplet/nuclear area B-score, replicate 1": -3.49, "droplet/nuclear area B-score, replicate 2": -1.08}
{"Target gene": "CG3216", "reagent": 1, "droplet/nuclear area B-score, replicate 1": 0.835, "droplet/nuclear area B-score, replicate 2": 0.0856}
{"Target gene": "TkR99D", "reagent": 1, "droplet/nuclear area B-score, replicate 1": -0.746, "droplet/nuclear area B-score, replicate 2": -0.164}
{"Target gene": "CG7906", "reagent": 1, "droplet/nuclear area B-score, replicate 1": 0.684, "droplet/nuclear area B-score, replicate 2": -0.386, "droplet/nuclear area B-score, replicate 3": -0.107}
{"Target gene": "CG4679", "reagent": 1, "droplet/nuclear area B-score, replicate 1": 2.14, "droplet/nuclear area B-score, replicate 2": 0.982}
{"Target gene": "CG2975", "reagent": 1, "droplet/nuclear area B-score, replicate 1": 1.57, "droplet/nuclear area B-score, replicate 2": -0.602}
{"Target gene": "Rpp14b", "reagent": 1, "droplet/nuclear area B-score, replicate 1": -0.173, "droplet/nuclear area B-score, replicate 2": 0.546}
{"Target gene": "Cpr78E", "reagent": 1, "droplet/nuclear area B-score, replicate 1": 0.498, "droplet/nuclear area B-score, replicate 2": 0.644}
{"Target gene": "CG11596", "reagent": 1, "droplet/nuclear area B-score, replicate 1": 0.178, "droplet/nuclear area B-score, replicate 2": -0.681}
{"Target gene": "SpdS", "reagent": 1, "droplet/nuclear area B-score, replicate 1": 1.28, "droplet/nuclear area B-score, replicate 2": -1.57}
{"Target gene": "TfIIA-S", "reagent": 1, "droplet/nuclear area B-score, replicate 1": 1.08, "droplet/nuclear area B-score, replicate 2": -0.903}
{"Target gene": "CG18284", "reagent": 1, "droplet/nuclear area B-score, replicate 1": -1.63, "droplet/nuclear area B-score, replicate 2": 0.0441}
{"Target gene": "CG18284", "reagent": 2, "droplet/nuclear area B-score, replicate 1": 2.19, "droplet/nuclear area B-score, replicate 2": -1.7}
{"Target gene": "Mdr50", "reagent": 1, "droplet/nuclear area B-score, replicate 1": 0.0171, "droplet/nuclear area B-score, replicate 2": -0.0892}
{"Target gene": "CG3534", "reagent": 1, "droplet/nuclear area B-score, replicate 1": 1.43, "droplet/nuclear area B-score, replicate 2": -0.0635}
{"Target gene": "CG4911", "reagent": 1, "droplet/nuclear area B-score, replicate 2": -0.54}
{"Target gene": "MICU3", "reagent": 1, "droplet/nuclear area B-score, replicate 1": -0.362, "droplet/nuclear area B-score, replicate 2": 0.0604}
{"Target gene": "MICU3", "reagent": 2, "droplet/nuclear area B-score, replicate 1": 0.383, "droplet/nuclear area B-score, replicate 2": 1.26}
{"Target gene": "CG32432", "reagent": 1, "droplet/nuclear area B-score, replicate 1": -1, "droplet/nuclear area B-score, replicate 2": 0.0692}
{"Target gene": "CG32432", "reagent": 2, "droplet/nuclear area B-score, replicate 1": 1.83, "droplet/nuclear area B-score, replicate 2": 2.66}
{"Target gene": "CG32432", "reagent": 3, "droplet/nuclear area B-score, replicate 1": -0.00875}
{"Target gene": "CG4681", "reagent": 1, "droplet/nuclear area B-score, replicate 1": -2.12, "droplet/nuclear area B-score, replicate 2": -0.371}
{"Target gene": "Rif1", "reagent": 1, "droplet/nuclear area B-score, replicate 1": -1.61, "droplet/nuclear area B-score, replicate 2": 0.567}
{"Target gene": "CG32189", "reagent": 1, "droplet/nuclear area B-score, replicate 1": -0.236, "droplet/nuclear area B-score, replicate 2": -0.132}
{"Target gene": "lectin-46Cb", "reagent": 1, "droplet/nuclear area B-score, replicate 1": -1.97, "droplet/nuclear area B-score, replicate 2": 0.332}
{"Target gene": "CG13000", "reagent": 1, "droplet/nuclear area B-score, replicate 1": 0.271, "droplet/nuclear area B-score, replicate 2": -0.726}
{"Target gene": "l(3)S110416 (retired record)", "reagent": 1, "droplet/nuclear area B-score, replicate 1": -0.155, "droplet/nuclear area B-score, replicate 2": -3.2}
{"Target gene": "Pkn + Tsen15", "reagent": 1, "droplet/nuclear area B-score, replicate 1": -0.669, "droplet/nuclear area B-score, replicate 2": 1.98}
{"Target gene": "WDR79", "reagent": 1, "droplet/nuclear area B-score, replicate 1": -0.345, "droplet/nuclear area B-score, replicate 2": 0.41}
{"Target gene": "bwa", "reagent": 1, "droplet/nuclear area B-score, replicate 1": -0.0471, "droplet/nuclear area B-score, replicate 2": -0.664}
{"Target gene": "bwa", "reagent": 2, "droplet/nuclear area B-score, replicate 1": -0.38, "droplet/nuclear area B-score, replicate 2": 0.0155}
{"Target gene": "CG12104", "reagent": 1, "droplet/nuclear area B-score, replicate 1": -0.332, "droplet/nuclear area B-score, replicate 2": -4.62}
{"Target gene": "flr", "reagent": 1, "droplet/nuclear area B-score, replicate 1": -0.293, "droplet/nuclear area B-score, replicate 2": 1.94}
{"Target gene": "Pfdn2", "reagent": 1, "droplet/nuclear area B-score, replicate 1": 0.376, "droplet/nuclear area B-score, replicate 2": 2.4}
{"Target gene": "Pgant8", "reagent": 1, "droplet/nuclear area B-score, replicate 1": -0.959, "droplet/nuclear area B-score, replicate 2": 0.545}
{"Target gene": "CG46491", "reagent": 1, "droplet/nuclear area B-score, replicate 1": -0.226, "droplet/nuclear area B-score, replicate 2": 0.245}
{"Target gene": "CG46491", "reagent": 2, "droplet/nuclear area B-score, replicate 1": 1.27, "droplet/nuclear area B-score, replicate 2": -0.776}
{"Target gene": "eys", "reagent": 1, "droplet/nuclear area B-score, replicate 1": -1.75, "droplet/nuclear area B-score, replicate 2": 0.824}
{"Target gene": "eys", "reagent": 2, "droplet/nuclear area B-score, replicate 1": 0.705, "droplet/nuclear area B-score, replicate 2": 0.629}
{"Target gene": "eys", "reagent": 3, "droplet/nuclear area B-score, replicate 1": 0.526, "droplet/nuclear area B-score, replicate 2": -1.62}
